Test results published in article PMC6325625, “The traffic ATPase PilF interacts with the inner membrane platform of the DNA translocator and type IV pili from Thermus thermophilus” (FEBS Open Bio, 2018).
No constants are given. Whether binding was seen depends on the method and setting. Tags and fused reporters may be left off the sequences shown.

Target: His6-PilM (soluble PilM from cells expressing His6-pilMN-Strep) (Thermus thermophilus HB27) (UniProt Q8VRL8)
Experiment: native gel or EMSA; 5-20% clear-native PAGE of purified His6-PilMN-Strep, His6-PilMNO-Strep and His6-PilM; bands of PilMN cut out and run on 14% SDS/PAGE; both purified

binding: no binding
B1: His6-PilM (soluble PilM from cells expressing His6-pilMN-Strep) (protein, UniProt Q8VRL8 1-377)
chain: MFKSLSQLFRPRVEALGLEIGASALKLVEVSGNPPALKALASRPTPPGLLMEGMVAEPAALAQEIKELLLEARTRKRYVVTALSNLAVILRPIQVPKMPLKEMEEAVRWEAERYIPFPIDEVVLDFAPLTPLSEVQEGEQVQVMVAAARQEAVAGVLEALRGAGLVPVVLDVKPFAGLYPLEARLAEEPDRVFLVLDIGAESTSLVLLRGDKPLAVRVLTLSGKDFTEAIARSFNLDLLAAEEVKRTYGMATLPTEDEELLLDFDAERERYSPGRIYDAIRPVLVELTQELRRSLEFFRIQLEEASPEMGYLLGGGSKLRGLASLLTDTLGVNFEPVNPWEAVAVDPKRFESEQLQEIGPEFAVALGLALRGVEPLD
